Experimental data: article PMC4047054
No constants are given. Whether binding was seen depends on the method and setting. In cells and extracts the contact can be indirect. For part of these data: Binding calls can cover weak binding; strength is not graded here. Tags and fused reporters may be left off the sequences shown.

Assays:
Assay in all cases: split reporter; BiFC with split EYFP (1-174 and 175-end) in onion epidermal cells, gene gun; confocal microscopy 24 hours after bombardment; DAPI staining
[1] = biological target: T1, FLZ domain of FLZ1 (89-140 amino acids), BiFC fusion (A. thaliana) (UniProt Q9FGQ9)
T1 sequence: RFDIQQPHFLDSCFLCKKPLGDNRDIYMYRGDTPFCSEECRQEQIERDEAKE

[2] = biological target: T2, AT5G49120, FLZ domain containing protein, BiFC fusion (A. thaliana) (UniProt Q9FH22)
T2 sequence: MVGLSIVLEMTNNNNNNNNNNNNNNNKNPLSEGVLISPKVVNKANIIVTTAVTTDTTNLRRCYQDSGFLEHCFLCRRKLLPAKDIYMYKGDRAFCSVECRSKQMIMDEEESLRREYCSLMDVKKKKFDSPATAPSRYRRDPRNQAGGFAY

[3] = biological target: T3, FLZ1, full coding sequence, BiFC fusion (A. thaliana) (UniProt Q9FGQ9)
T3 sequence: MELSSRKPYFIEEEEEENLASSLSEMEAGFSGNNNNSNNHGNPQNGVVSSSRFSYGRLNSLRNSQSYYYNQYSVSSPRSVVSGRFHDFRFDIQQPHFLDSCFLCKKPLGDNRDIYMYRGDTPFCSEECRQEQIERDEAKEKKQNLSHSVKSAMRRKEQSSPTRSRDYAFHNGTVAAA

binding [1]: binds
binding [2]: no binding
binding [3]: binds
Substance: PFA-DSP3, BiFC fusion (A. thaliana)
